TcHisRS: 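Enzyme assay of histidyl-tRNA synthetase; the read-out is not stated. Target: Histidine-tRNA ligase, Trypanosoma cruzi CL Brener (UniProt Q4DA54). Concentration: 30 µM. Direction is inferred from retests: higher values go with stronger inhibition. About 69,000 compounds were tested under these conditions; 0.045% (about 31) showed 50% or more at least once.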
ClpP1P2: 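Protease assay of ClpP1P2, read by the AMC dye that it sets free. Target: ClpP1P2, Mycobacterium tuberculosis (UniProt P9WPC5 and UniProt P9WPC3). Tested at 50 µM. Higher reads as stronger inhibition, judged from the few compounds that gave an IC50. Most other retested compounds had strongly negative values. About 69,000 compounds were tested under these conditions; 0.015% (about 10) showed 50% or more at least once.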

By UniProt entry, the sequences of proteins in these tests, tags left out. Residues count along the entry.
UniProt Q4DA54, 1-478: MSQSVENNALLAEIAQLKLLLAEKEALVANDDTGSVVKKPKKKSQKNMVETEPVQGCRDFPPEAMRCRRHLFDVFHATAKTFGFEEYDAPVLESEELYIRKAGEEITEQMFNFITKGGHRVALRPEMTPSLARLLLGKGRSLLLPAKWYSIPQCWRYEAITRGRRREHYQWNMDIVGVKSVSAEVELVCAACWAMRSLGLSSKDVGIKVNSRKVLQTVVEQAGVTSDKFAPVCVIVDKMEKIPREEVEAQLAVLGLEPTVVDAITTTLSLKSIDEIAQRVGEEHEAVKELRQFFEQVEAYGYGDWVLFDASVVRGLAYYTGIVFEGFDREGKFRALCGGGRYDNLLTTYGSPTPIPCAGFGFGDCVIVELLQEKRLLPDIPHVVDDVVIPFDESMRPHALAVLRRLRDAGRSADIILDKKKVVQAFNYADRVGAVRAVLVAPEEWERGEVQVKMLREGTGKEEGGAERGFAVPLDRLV
UniProt P9WPC5, whole entry: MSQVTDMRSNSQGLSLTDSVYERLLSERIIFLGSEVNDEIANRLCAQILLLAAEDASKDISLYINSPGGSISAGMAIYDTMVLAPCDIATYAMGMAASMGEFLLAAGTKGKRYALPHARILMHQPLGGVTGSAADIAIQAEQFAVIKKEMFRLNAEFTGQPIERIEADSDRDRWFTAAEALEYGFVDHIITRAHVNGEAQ
UniProt P9WPC3, whole entry partner: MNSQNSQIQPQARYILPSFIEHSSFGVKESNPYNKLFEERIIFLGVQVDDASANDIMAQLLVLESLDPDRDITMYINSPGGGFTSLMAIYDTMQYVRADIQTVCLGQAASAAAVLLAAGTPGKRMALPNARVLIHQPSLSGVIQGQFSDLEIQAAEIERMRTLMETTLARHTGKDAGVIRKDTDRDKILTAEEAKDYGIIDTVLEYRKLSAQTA

Each number is a percent effect as filed. The controls that fix the scale are not given in the record; negative values are as filed. This is an unselected part of the compounds tested.

* Cn1cccc1C(O)CNS(=O)(=O)Cc1ccccc1 (centres undefined) : TcHisRS: -1.031%; ClpP1P2: 7.016%
* Cc1nn(C)c2sc(C(=O)N3CCCC(n4ccnc4C)C3)cc12 (centres undefined) : TcHisRS: -2.174%; ClpP1P2: -7.687%
* O=C(Nc1ccccc1N1CCOC1=O)N1CCSCC1 : TcHisRS: 3.665%; ClpP1P2: 3.466%
* CNC(=O)[C@H]1C[C@@H]2CCN(Cc3nccs3)C[C@H]2O1 : TcHisRS: 6.897%; ClpP1P2: -0.8268%
* CC(OCC1CC1)C(=O)N1CCCN(c2ncccc2C#N)CC1 (centres undefined) : TcHisRS: 1.515%; ClpP1P2: 10.82%
* CS(=O)(=O)CCN1CCCC1c1noc(C2CC2)n1 (centres undefined) : TcHisRS: 8%; ClpP1P2: -5.698%
* Cc1nc(CN2CCCN(CC(=O)N(C)CCC#N)CC2)no1 : TcHisRS: 1.97%; ClpP1P2: -11.25%
* Cc1ncoc1C(=O)N1C[C@@H]2COC[C@]2(c2nnc(C3CC3)o2)C1 : TcHisRS: 2.97%; ClpP1P2: -2.845%
* Cc1cc(C(=O)N2CC[C@@]3(O)CCN(S(C)(=O)=O)C[C@H]3C2)c(C)n1C : TcHisRS: 0%; ClpP1P2: -13.34%
* COCC(=O)N1CC(C(=O)NCC2CC2)C2(CCOCC2)C1 (centres undefined) : TcHisRS: 6.63%; ClpP1P2: -5.43%
* CC(C)N1CCC(Cc2cncc(-c3cccc(C(=O)O)c3)n2)C1 (centres undefined) : TcHisRS: 10.64%; ClpP1P2: 3.268%
* CCOC1CCCN(C(=O)c2cnc3c(cnn3C3CCCC3)c2)C1 (centres undefined) : TcHisRS: 3.759%; ClpP1P2: 3.466%
* CN1C(=O)C[C@H]2[C@H]1CCN2Cc1cccc(C#N)c1 : TcHisRS: 10.78%; ClpP1P2: 0.3587%
* CCN(Cc1c(C)nn(C)c1C)C(=O)C1COc2ccccc2C1 (centres undefined) : TcHisRS: 10.27%; ClpP1P2: -12.11%
* Cc1nn(C)c2c(=O)n(Cc3ccc(C#N)cc3)nnc12 : TcHisRS: 2.609%; ClpP1P2: 3.575%
* CCC(C(=O)NC1CCCCC1)n1ccc2ncccc2c1=O (centres undefined) : TcHisRS: 1.293%; ClpP1P2: -4.722%
* COc1ccc(S(=O)(=O)N2CCC(Cn3ccnc3)CC2)cc1 : TcHisRS: 9.845%; ClpP1P2: 2.737%
* Cc1ccc(C)c(C(O)Cn2cc(Cl)c(=O)[nH]c2=O)c1 (centres undefined) : TcHisRS: 3.158%; ClpP1P2: -11.88%
* Cc1ccc(CNS(=O)(=O)CCCC#N)cc1F : TcHisRS: 11.06%; ClpP1P2: -5.183%
* CCOCc1ccccc1NC(=O)NC1CCN(c2ccccc2)C1 (centres undefined) : TcHisRS: 2.809%; ClpP1P2: -2.183%
* CC(C)NC(=O)N1CC[C@@H](N(C)C)[C@@H]1Cc1ccncc1 : TcHisRS: 2.299%; ClpP1P2: 6.335%
* COc1ccc(CN2CCOC[C@H]2c2nc(-c3ccncc3)c[nH]2)cc1 : TcHisRS: 1.493%; ClpP1P2: 0.2236%
* Cc1nn(C)c2c(=O)n(Cc3ccc(Cl)cc3)nnc12 : TcHisRS: -6.957%; ClpP1P2: 9.591%
* CNC(=O)C1CCCCN1C(=O)CCn1cnc2sccc2c1=O (centres undefined) : TcHisRS: 2.532%; ClpP1P2: 0.9713%
* CC1CCN(C(=O)c2cn(-c3cc(N4CCSCC4)ncn3)cn2)CC1 : TcHisRS: -2.041%; ClpP1P2: -5.46%
* Cn1nc(Br)nc1Sc1ccccc1NC(=O)C1CC1 : TcHisRS: -2%; ClpP1P2: -7.366%
* Oc1nnc(-c2ccccc2)c2sc(N3CCCCC3)nc12 : TcHisRS: 6.341%; ClpP1P2: -12.36%
* CCNc1ncc(C(=O)NCCc2csc(-c3ncccn3)n2)cn1 : TcHisRS: 1.235%; ClpP1P2: 13.18%
* CCc1nc(CNC2CCN(c3ccc(OC)cc3)CC2)cs1 : TcHisRS: 6.329%; ClpP1P2: -2.183%
* CC(C)C(NC(=O)NCC1CC1)c1nnc2n1CCC2 (centres undefined) : TcHisRS: 3.139%; ClpP1P2: -23.85%
* CC(C)OCCCN(CC(=O)N1CCNCC1)C(=O)c1ccc(F)cc1 : TcHisRS: 1.22%; ClpP1P2: -6.842%
* CCCn1ncc(C(=O)NCc2n[nH]c3c2CCCCC3)c1C : TcHisRS: 0%; ClpP1P2: -23.74%
* O=C(COc1ccccc1)NS(=O)(=O)Cc1ccccc1 : TcHisRS: 4.082%; ClpP1P2: 4.268%

Repeated from the top, 3 entries:

Result for Cn1cccc1C(O)CNS(=O)(=O)Cc1ccccc1 (centres undefined) was TcHisRS: -1.031%; ClpP1P2: 7.016%.
Result for Cc1nn(C)c2sc(C(=O)N3CCCC(n4ccnc4C)C3)cc12 (centres undefined) was TcHisRS: -2.174%; ClpP1P2: -7.687%.
Result for O=C(Nc1ccccc1N1CCOC1=O)N1CCSCC1 was TcHisRS: 3.665%; ClpP1P2: 3.466%.

Data taken from ChEMBL document CHEMBL3988442, “University of Dundee, Small-Polar-MMV Screening Library” (2021).